Results are given in words; binding and its absence hold for the method and conditions named. Some entries that bind do so weakly or less than the wild type.
Biological target: Bacillus PS3 ATP synthase subunit δ (Bacillus PS3) (UniProt P09220)
Experiment: cryo-EM structure; intact Bacillus PS3 ATP synthase in GDN, three rotational states at 3.0, 3.0 and 3.2 Å; focused refinement of the membrane-embedded region at 3.3 Å; both purified

By UniProt entry, the sequences of proteins in these tests, tags left out. Where a name states a change or a piece, a line headed by the entry shows the natural chain unless it says otherwise.
UniProt P09220: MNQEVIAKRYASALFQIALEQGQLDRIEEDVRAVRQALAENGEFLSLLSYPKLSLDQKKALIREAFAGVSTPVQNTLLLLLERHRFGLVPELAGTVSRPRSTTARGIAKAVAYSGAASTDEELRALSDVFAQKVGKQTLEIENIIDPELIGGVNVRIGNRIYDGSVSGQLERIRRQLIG

B1: Bacillus PS3 ATP synthase subunit b (protein, UniProt P09221 12-160)
chain: EAAHGISGGTIIYQLLMFIILLALLRKFAWQPLMNIMKQREEHIATKSTRRKNDRQEAEKLLEEQRELMKQSRQEAQALIENAASLAEEQKEQIVASARAEAERVKEAAKKEIEREKEQAMAALREQVASLSVLIASKVIEKELTEQDQ
With B1 the binding was “binds”.
